Results: US11185594B2 (DAIICHI SANKYO COMPANY, LIMITED, priority 2014, dated 2021)

Assay: general procedure: solution-phase peptide synthesis; 1-ethyl-3-(3-dimethylaminopropyl)carbodiimide hydrochloride / 1-hydroxybenzotria
Conditions: for conjugation yield: conjugation step
[1] = late stage modification step, trifluoroacetic acid salt

With “N-(3-Sulfanylpropanoyl)glycylglycyl-L-phenylalanyl-N-(4-{[(1S,9S)-9-ethyl-5-fluoro-9-hydroxy-4-methyl-10,13-dioxo-2,3,9,10,13,15-hexahydro-1H,12H-benzo[de]pyrano[3′,4′:6,7]indolizino[1,2-b]quinolin-1-yl]amino}-4-oxobutyl)glycinamide” the step yield (late stage modification step) was 66%.
“N-[6-(2,5-Dioxo-2,5-dihydro-1H-pyrrol-1-yl)hexanoyl]glycylglycyl-L-phenylalanyl-N-[(1S,9S)-9-ethyl-5-fluoro-9-hydroxy-4-methyl-10,13-dioxo-2,3,9,10,13,15-hexahydro-1H,12H-benzo[de]pyrano[3′,4′:6,7]indolizino[1,2-b]quinolin-1-yl]glycinamide” gave a conjugation yield of 37%.
For “N-(tert-Butoxycarbonyl)-L-serylglycylglycyl-L-phenylalanyl-N-[(1S,9S)-9-ethyl-5-fluoro-9-hydroxy-4-methyl-10,13-dioxo-2,3,9,10,13,15-hexahydro-1H,12H-benzo[de]pyrano[3′,4′:6,7]indolizino[1,2-b]quinolin-1-yl]glycinamide”, the conjugation yield was 82%.
“tert-Butyl (3S,12S)-3-amino-12-benzyl-21-{[(1S,9S)-9-ethyl-5-fluoro-9-hydroxy-4-methyl-10,13-dioxo-2,3,9,10,13,15-hexahydro-1H,12H-benzo[de]pyrano[3′,4′:6,7]indolizino[1,2-b]quinolin-1-yl]amino}-4,7,10,13,16,21-hexaoxo-5,8,11,14,17-pentaazaheneicosan-1-oate” gave a step yield (late stage modification step) of 85%.
In the case of “Benzyl (5S,14S)-14-benzyl-5-(2-tert-butoxy-2-oxoethyl)-1-(9H-fluoren-9-yl)-7-methyl-3,6,9,12-tetraoxo-2-oxa-4,7,10,13-tetraazapantadecan-15-oate”, the step yield (coupling step, 3 steps) was 87%, 3 steps.
In the case of “Glycylglycyl-L-phenylalanylglycyl-N-[(1S,9S)-9-ethyl-5-fluoro-9-hydroxy-4-methyl-10,13-dioxo-2,3,9,10,13,15-hexahydro-1H,12H-benzo[de]pyrano[3′,4′:6,7]indolizino[1,2-b]quinolin-1-yl]-β-alaninamide trifluoroacetic acid salt”, the step yield [1] was 92%.
Work on “N-(tert-Butoxycarbonyl)glycylglycyl-L-phenylalanylglycylglycylglycylphenylalanyl-N-[(1S,9S)-9-ethyl-5-fluoro-9-hydroxy-4-methyl-10,13-dioxo-2,3,9,10,13,15-hexahydro-1H,12H-yl]glycinamide” yielded a step yield (coupling step) of 66%.
With “N-{8-[(2,5-Dioxopyrrolidin-1-yl)oxy]-8-oxoocatnoyl}glycylglycyl-L-phenylalanyl-N-(4-{[(1S,9S)-9-ethyl-5-fluoro-9-hydroxy-4-methyl-10,13-dioxo-2,3,9,10,13,15-hexahydro-1H,12H-benzo[de]pyrano[3′,4′:6,7]indolizino[1,2-b]quinolin-1-yl]amino}-4-oxobutyl)glycinamide” the step yield (late stage modification step) was 71%.
“N-(tert-Butoxycarbonyl)glycylglycyl-L-phenylalanylglycyl-N-[(1S,9S)-9-ethyl-5-fluoro-9-hydroxy-4-methyl-10,13-dioxo-2,3,9,10,13,15-hexahydro-1H,12H-benzo[de]pyrano[3′,4′:6,7]indolizino[1,2-b]quinolin-1-yl]-β-alaninamide” showed a conjugation yield of 87%.
With “N-[6-(2,5-Dioxo-2,5-dihydro-1H-pyrrol-1-yl)hexanoyl]-L-α-aspartyl-N-methylglycylglycyl-L-phenylalanyl-N-[(1S,9S)-9-ethyl-5-fluoro-9-hydroxy-4-methyl-10,13-dioxo-2,3,9,10,13,15-hexahydro-1H,12H-benzo[de]pyrano[3′,4′:6,7]indolizino[1,2-b]quinolin-1-yl]glycinamide” the step yield (late stage modification step) was 13%.
“tert-Butyl (5S,14S)-14-amino-5-benzyl-1-{[(1S,9S)-9-ethyl-5-fluoro-9-hydroxy-4-methyl-10,13-dioxo-2,3,9,10,13,15-hexahydro-1H,12H-benzo[de]pyrano[3′,4′:6,7]indolizino[1,2-b]quinolin-1-yl]amino}-12-methyl-1,4,7,10,13-pentaoxo-3,6,9,12-tetraazapentadecan-16-oate” showed a step yield (late stage modification step) of 83%.
Substance “Glycylglycyl-L-phenylalanylglycylglycylglycylphenylalanyl-N-[(1S,9S)-9-ethyl-5-fluoro-9-hydroxy-4-methyl-10,13-dioxo-2,3,9,10,13,15-hexahydro-1H,12H-benzo[de]pyrano[3′,4′:6,7]indolizino[1,2-b]quinolin-1-yl]glycinamide” has a step yield (late stage modification step) of 66%.
“tert-Butyl (9S,18S)-9-benzyl-1-{[(1S,9S)-9-ethyl-5-fluoro-9-hydroxy-4-methyl-10,13-dioxo-2,3,9,10,13,15-hexahydro-1H,12H-benzo[de]pyrano[3′,4′:6,7]indolizino[1,2-b]quinolin-1-yl]amino}-18-{[(9H-fluoren-9-ylmethoxy)carbonyl]amino}-1,5,8,11,14” gave a step yield (coupling step) of 38%.
With “Glycylglycyl-L-phenylalanyl-N-(4-{[(1S,9S)-9-ethyl-5-fluoro-9-hydroxy-4-methyl-10,13-dioxo-2,3,9,10,13,15-hexahydro-1H,12H-benzo[de]pyrano[3′,4′:6,7]indolizino[1,2-b]quinolin-1-yl]amino}-4-oxobutyl)glycinamide” the step yield [1] was 99%.
In the case of “N-[(9H-Fluoren-9-ylmethoxy)carbonyl]glycylglycyl-N-(4-{[(1S,9S)-9-ethyl-5-fluoro-9-hydroxy-4-methyl-10,13-dioxo-2,3,9,10,13,15-hexahydro-1H,12H-benzo[de]pyrano[3′,4′:6,7]indolizino[1,2-b]quinolin-1-yl]amino}-4-oxobutyl)-L-phenylalaninamide”, the conjugation yield was 40%.
Substance “L-Serylglycylglycyl-L-phenylalanyl-N-[(1S,9S)-9-ethyl-5-fluoro-9-hydroxy-4-methyl-10,13-dioxo-2,3,9,10,13,15-hexahydro-1H,12H-benzo[de]pyrano[3′,4′:6,7]indolizino[1,2-b]quinolin-1-yl]glycinamide” has a step yield [1] of 91%.
“N-(2-Aminoethyl)-N-(carboxymethyl)glycylglycylglycyl-L-phenylalanyl-N-[(1S,9S)-9-ethyl-5-fluoro-9-hydroxy-4-methyl-10,13-dioxo-2,3,9,10,13,15-hexahydro-1H,12H-yl]glycinamide” showed a step yield (late stage modification step) of 58%.
Work on “tert-Butyl (3S,6S,15S)-15-benzyl-6-(2-tert-butoxy-2-oxoethyl)-24-{[(1S,9S)-9-ethyl-5-fluoro-9-hydroxy-4-methyl-10,13-dioxo-2,3,9,10,13,15-hexahydro-1H,12H-benzo[de]pyrano[3′,4′:6,7]indolizino[1,2-b]quinolin-1-yl]amino}” yielded a step yield (coupling step) of 72%.
For “N^2-[6-(2,5-Dioxo-2,5-dihydro-1H-pyrrol-1-yl)hexanoyl]-L-lysylglycylglycyl-L-phenylalanyl-N-[(1S,9S)-9-ethyl-5-fluoro-9-hydroxy-4-methyl-10,13-dioxo-2,3,9,10,13,15-hexahydro-1H,12H-benzo[de]pyrano[3′,4′:6,7]indolizino[1,2-b]quinolin-1-yl]gl”, the step yield [1] was 78%.
“N-(2-Aminoethyl)-N-(carboxymethyl)glycylglycyl-L-phenylalanyl-N-(4-{[(1S,9S)-9-ethyl-5-fluoro-9-hydroxy-4-methyl-10,13-dioxo-2,3,9,10,13,15-hexahydro-1H,12H-benzo[de]pyrano[3′,4′:6,7]indolizino[1,2-b]quinolin-1-yl]amino}-4-oxobutyl)glycinamide” gave a step yield (late stage modification step) of 67%.
Substance “Ethyl N-(tert-butoxycarbonyl)-L-serylglycylglycyl-L-phenylalanyl glycinate” has a step yield (coupling step) of 58%.
“Glycylglycyl-L-phenylalanyl-N-(5-{[(1S,9S)-9-ethyl-5-fluoro-9-hydroxy-10,13-dioxo-2,3,9,10,13,15-hexahydro-1H,12H-benzo[de]pyrano[3′,4′:6,7]indolizino[1,2-b]quinolin-1-yl]amino}-5-oxopentyl)glycinamide” showed a step yield [1] of 99%.
Work on “Glycylglycyl-L-phenylalanyl-O-tert-butyl-N-[(1S,9S)-9-ethyl-5-fluoro-9-hydroxy-4-methyl-10,13-dioxo-2,3,9,10,13,15-hexahydro-1H,12H-yl]-L-serinamide” yielded a step yield (coupling step) of 49%.
“β-Alanylglycylglycyl-L-phenylalanyl-N-(4-{[(1S,9S)-9-ethyl-5-fluoro-9-hydroxy-4-methyl-10,13-dioxo-2,3,9,10,13,15-hexahydro-1H,12H-benzo[de]pyrano[3′,4′:6,7]indolizino[1,2-b]quinolin-1-yl]amino}-4-oxobutyl)glycinamide” showed a step yield (coupling step) of 67%.
In the case of “N^6-(tert-Butoxycarbonyl)-L-lysylglycylglycyl-L-phenylalanyl-N-[(1S,9S)-9-ethyl-5-fluoro-9-hydroxy-4-methyl-10,13-dioxo-2,3,9,10,13,15-hexahydro-1H,12H-benzo[de]pyrano[3′,4′:6,7]indolizino[1,2-b]quinolin-1-yl]glycinamide”, the step yield (late stage modification step) was 71%.
For “N-(Bromoacetyl)-β-alanylglycylglycyl-L-phenylalanyl-N-(4-{[(1S,9S)-9-ethyl-5-fluoro-9-hydroxy-4-methyl-10,13-dioxo-2,3,9,10,13,15-hexahydro-1H,12H-benzo[de]pyrano[3′,4′:6,7]indolizino[1,2-b]quinolin-1-yl]amino}-4-oxobutyl)glycinamide”, the step yield (late stage modification step) was 40%.
Work on “N-(tert-Butoxycarbonyl)glycylglycyl-L-phenylalanyl-N-(5-{[(1S,9S)-9-ethyl-5-fluoro-9-hydroxy-4-methyl-10,13-dioxo-2,3,9,10,13,15-hexahydro-1H,12H-benzo[de]pyrano[3′,4′:6,7]indolizino[1,2-b]quinolin-1-yl]amino}-5-oxopentyl)glycinamide” yielded a conjugation yield of 84%.
For “N-(tert-Butoxycarbonyl)glycylglycyl-L-phenylalanyl-N-(4-{[(1S,9S)-9-ethyl-5-fluoro-9-hydroxy-4-methyl-10,13-dioxo-2,3,9,10,13,15-hexahydro-1H,12H-benzo[de]pyrano[3′,4′:6,7]indolizino[1,2-b]quinolin-1-yl]amino}-4-oxobutyl)glycinamide”, the conjugation yield was 73%.
“Ethyl N-(tert-butoxycarbonyl)glycylglycyl-L-phenylalanylglycinate” gave a step yield (coupling step) of 82%.
